No constants are given. Whether binding was seen depends on the method and setting. For part of these data: In cells and extracts the contact can be indirect. Some binding calls cover weakened binding; strength is not graded here. For part of these data: Sequences can lack the tags named with a protein.

The chains behind the UniProt entries cited, without tags or fusion partners. Where a name states a change or a piece, a line headed by the entry shows the natural chain unless it says otherwise.
UniProt P21333: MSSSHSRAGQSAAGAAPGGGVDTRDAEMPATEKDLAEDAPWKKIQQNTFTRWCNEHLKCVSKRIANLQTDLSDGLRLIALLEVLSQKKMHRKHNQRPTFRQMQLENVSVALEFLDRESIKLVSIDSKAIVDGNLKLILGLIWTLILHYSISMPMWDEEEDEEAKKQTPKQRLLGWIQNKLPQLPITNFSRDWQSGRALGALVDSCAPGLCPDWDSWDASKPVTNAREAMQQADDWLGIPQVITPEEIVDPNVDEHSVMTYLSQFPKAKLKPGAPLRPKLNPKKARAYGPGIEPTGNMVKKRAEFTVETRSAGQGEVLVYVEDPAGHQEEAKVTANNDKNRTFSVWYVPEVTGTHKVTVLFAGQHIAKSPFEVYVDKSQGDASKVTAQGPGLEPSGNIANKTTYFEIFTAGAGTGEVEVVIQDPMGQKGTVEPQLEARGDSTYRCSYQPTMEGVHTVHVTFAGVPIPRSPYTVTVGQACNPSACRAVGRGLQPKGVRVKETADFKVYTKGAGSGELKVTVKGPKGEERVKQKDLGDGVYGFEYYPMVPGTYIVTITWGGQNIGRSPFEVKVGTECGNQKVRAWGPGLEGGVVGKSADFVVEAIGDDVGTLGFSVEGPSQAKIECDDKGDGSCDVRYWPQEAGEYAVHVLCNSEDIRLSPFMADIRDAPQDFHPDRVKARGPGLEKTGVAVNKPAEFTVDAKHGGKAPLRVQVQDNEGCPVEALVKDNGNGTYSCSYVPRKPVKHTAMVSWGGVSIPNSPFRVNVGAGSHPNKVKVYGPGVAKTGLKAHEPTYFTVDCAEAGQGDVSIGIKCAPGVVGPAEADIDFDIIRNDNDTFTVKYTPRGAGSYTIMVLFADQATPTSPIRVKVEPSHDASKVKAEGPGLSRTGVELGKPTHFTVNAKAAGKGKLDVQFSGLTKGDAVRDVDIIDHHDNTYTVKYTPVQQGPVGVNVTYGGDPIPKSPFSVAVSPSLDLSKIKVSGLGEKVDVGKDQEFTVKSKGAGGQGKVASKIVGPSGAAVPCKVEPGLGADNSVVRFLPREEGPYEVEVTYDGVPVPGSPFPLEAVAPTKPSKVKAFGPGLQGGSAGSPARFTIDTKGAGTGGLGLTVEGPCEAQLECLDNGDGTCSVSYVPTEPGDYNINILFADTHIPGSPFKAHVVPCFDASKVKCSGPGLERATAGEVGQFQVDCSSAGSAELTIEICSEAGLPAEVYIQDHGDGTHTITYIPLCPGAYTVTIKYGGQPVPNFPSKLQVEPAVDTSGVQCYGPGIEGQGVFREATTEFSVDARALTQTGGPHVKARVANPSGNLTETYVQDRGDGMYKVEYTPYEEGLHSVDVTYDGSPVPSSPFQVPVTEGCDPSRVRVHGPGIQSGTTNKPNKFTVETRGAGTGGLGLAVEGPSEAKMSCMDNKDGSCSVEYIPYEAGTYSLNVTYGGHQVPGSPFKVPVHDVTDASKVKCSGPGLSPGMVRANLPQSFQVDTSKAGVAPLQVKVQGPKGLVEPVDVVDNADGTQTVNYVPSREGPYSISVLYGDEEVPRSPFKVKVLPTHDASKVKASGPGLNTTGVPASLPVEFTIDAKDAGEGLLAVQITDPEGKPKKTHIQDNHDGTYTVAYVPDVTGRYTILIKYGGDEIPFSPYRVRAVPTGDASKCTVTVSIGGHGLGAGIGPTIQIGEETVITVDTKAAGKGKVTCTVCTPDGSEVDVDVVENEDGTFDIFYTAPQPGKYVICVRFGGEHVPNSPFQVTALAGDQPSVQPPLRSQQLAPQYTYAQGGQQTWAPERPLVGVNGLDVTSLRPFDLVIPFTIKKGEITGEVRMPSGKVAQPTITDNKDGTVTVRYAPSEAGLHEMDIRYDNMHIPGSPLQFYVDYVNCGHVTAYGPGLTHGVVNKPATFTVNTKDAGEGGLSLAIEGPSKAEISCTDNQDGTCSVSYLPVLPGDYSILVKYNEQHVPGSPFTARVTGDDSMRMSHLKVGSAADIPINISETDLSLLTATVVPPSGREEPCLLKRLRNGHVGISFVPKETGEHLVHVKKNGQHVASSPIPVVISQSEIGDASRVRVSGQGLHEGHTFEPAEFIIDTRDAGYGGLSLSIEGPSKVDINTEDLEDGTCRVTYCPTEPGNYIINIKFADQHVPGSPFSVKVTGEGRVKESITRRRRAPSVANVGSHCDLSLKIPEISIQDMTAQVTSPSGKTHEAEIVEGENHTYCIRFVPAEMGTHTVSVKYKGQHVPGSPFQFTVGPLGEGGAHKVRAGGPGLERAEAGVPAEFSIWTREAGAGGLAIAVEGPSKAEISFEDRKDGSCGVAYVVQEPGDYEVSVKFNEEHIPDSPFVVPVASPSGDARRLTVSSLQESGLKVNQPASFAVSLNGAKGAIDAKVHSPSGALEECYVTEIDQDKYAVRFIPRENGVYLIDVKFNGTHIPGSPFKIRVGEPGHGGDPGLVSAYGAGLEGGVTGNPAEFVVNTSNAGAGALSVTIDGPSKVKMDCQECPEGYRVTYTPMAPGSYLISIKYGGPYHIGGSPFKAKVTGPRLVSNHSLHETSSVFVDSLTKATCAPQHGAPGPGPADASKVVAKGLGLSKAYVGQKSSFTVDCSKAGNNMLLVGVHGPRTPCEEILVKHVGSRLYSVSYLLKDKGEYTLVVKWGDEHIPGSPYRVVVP
UniProt Q8BTM8: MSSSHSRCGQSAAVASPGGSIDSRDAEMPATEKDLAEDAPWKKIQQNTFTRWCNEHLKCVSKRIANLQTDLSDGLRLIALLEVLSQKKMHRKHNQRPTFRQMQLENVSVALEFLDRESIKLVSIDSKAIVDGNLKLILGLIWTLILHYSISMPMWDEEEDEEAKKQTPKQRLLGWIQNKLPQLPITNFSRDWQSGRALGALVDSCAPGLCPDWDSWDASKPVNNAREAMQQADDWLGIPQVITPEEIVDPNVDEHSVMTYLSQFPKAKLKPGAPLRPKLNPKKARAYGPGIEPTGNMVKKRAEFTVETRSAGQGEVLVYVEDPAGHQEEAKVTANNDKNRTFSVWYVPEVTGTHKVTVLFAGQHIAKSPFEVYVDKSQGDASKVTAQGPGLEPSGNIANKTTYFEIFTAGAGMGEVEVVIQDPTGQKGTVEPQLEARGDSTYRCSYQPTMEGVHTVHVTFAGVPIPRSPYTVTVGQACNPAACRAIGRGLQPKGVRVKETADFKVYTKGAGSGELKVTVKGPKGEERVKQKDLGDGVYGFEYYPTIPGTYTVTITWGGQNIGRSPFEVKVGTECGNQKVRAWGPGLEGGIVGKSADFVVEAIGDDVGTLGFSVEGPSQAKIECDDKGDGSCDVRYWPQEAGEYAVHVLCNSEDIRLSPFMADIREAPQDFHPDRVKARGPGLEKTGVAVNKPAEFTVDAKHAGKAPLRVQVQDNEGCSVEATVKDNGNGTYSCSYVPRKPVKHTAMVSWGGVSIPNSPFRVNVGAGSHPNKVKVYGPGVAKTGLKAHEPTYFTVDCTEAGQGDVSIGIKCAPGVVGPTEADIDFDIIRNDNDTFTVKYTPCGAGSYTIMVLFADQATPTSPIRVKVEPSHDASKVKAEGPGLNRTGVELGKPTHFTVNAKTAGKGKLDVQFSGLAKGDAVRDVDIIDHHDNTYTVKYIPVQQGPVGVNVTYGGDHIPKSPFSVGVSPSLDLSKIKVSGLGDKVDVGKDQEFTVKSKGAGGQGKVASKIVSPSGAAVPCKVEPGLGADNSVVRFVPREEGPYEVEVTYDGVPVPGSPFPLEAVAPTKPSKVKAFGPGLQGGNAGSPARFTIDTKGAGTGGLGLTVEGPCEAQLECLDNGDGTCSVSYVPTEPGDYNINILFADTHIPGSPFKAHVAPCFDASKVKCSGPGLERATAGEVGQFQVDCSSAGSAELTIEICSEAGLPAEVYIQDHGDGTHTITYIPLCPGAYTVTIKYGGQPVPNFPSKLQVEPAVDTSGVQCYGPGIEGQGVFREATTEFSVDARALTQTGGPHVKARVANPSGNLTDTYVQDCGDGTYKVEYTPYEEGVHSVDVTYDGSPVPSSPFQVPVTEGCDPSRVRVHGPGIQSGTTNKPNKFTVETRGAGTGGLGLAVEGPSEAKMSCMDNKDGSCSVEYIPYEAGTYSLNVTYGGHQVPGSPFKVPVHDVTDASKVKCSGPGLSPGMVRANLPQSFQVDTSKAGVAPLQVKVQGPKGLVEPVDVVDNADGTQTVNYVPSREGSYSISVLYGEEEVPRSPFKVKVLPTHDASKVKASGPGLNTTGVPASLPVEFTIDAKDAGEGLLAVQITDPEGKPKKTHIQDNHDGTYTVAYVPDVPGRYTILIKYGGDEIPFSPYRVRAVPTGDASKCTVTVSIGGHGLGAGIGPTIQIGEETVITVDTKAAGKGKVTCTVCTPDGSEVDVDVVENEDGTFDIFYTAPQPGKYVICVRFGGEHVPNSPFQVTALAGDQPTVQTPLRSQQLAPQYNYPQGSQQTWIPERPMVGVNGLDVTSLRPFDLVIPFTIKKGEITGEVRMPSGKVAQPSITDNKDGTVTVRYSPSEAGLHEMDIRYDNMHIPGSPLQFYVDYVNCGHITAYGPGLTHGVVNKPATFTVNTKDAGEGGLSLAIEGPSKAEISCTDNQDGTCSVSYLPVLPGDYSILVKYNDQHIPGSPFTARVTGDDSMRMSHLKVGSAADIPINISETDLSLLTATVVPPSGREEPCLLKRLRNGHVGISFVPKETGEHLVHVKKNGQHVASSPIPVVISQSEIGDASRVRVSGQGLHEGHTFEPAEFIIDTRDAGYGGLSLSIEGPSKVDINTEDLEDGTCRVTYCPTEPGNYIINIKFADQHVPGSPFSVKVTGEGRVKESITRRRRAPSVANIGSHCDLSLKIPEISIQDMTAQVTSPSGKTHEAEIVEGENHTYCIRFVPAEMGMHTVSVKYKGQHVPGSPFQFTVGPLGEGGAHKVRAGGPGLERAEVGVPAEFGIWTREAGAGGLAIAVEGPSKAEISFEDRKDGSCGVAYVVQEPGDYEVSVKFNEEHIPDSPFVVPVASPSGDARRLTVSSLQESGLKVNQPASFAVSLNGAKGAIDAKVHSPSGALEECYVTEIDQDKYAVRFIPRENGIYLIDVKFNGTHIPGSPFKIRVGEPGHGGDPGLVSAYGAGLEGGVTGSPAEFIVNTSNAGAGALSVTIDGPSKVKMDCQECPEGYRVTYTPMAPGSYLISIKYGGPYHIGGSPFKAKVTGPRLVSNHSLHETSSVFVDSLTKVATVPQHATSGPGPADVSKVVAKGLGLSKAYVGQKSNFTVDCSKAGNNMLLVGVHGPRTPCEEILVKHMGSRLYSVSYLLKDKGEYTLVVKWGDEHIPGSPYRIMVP

Assay [1] addresses T1, PC2 C-terminus (PC2C, aa D682-V968) fused to the GAL4 DNA binding domain (human) (UniProt Q13563).
T1 sequence: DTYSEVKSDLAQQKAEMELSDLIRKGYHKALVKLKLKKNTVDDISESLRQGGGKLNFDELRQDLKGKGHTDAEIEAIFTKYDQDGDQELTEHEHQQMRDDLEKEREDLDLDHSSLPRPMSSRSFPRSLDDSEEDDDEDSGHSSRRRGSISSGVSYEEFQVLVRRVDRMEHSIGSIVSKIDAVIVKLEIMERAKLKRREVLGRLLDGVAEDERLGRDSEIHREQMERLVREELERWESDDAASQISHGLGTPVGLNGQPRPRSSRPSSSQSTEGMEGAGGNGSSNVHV
Put plainly: two-hybrid; GAL4 system; PC2N or PC2C as bait in pGBKT7, preys in pGADT7; human heart library screened in AH109, bait-prey pairs co-transformed in Y187; beta-GAL by X-gal filter lift at 30°C.

Assay [2] addresses T2, PC2 N-terminus (PC2N, aa M1-K215) fused to the GAL4 DNA binding domain (human) (UniProt Q13563).
T2 sequence: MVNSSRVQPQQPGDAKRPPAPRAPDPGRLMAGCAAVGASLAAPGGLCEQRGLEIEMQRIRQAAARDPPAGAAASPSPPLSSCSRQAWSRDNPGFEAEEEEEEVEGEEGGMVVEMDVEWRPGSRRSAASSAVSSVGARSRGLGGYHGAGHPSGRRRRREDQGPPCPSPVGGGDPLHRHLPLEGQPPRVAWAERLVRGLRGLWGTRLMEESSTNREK
The assay is described as above.

Assay [3] concerns the target endogenous FLNA of HEK293T cells (human (endogenous in HEK293T)) (UniProt P21333). Nature of the assay: co-IP; endogenous proteins in cell lysates (IMCD, MDCK, LLC-PK1, HEK293T); precipitated with anti-PC2 H-280 or, reciprocally, anti-FLNA H-300, non-immune rabbit IgG as control; blotted with anti-FLNA H-300 or anti-PC2 1A11.
Assay [4] concerns the target FLNA of human melanoma A7 cells (human (called endogenous in A7)) (UniProt P21333). Nature of the assay: co-IP; A7 cells stably expressing GFP-PC2 and transiently expressing GFP-PC2N, GFP-PC2C, both, or GFP (48 hr); precipitated with anti-FLNA H-300, blotted with anti-GFP B-2.
For assay [5], the target named is endogenous FLNA of IMCD cells (not stated (endogenous in IMCD)) (UniProt Q8BTM8). Put plainly: co-IP; endogenous proteins in cell lysates (IMCD, MDCK, LLC-PK1, HEK293T); precipitated with anti-PC2 H-280 or, reciprocally, anti-FLNA H-300, non-immune rabbit IgG as control; blotted with anti-FLNA H-300 or anti-PC2 1A11.

Regarding “C-terminus of human FLNA (FLNAC, aa 2150-2647) in pGADT7 (from UniProt P21333 2150-2647) (domain or fragment)”, the binding result in assay [1] and in assay [2] was “binds” in each case.

B1: C-terminus of human FLNB (FLNBC, aa 2105-2602) in pGADT7 (domain or fragment, UniProt O75369 2105-2602)
chain: APSVATVGSICDLNLKIPEINSSDMSAHVTSPSGRVTEAEIVPMGKNSHCVRFVPQEMGVHTVSVKYRGQHVTGSPFQFTVGPLGEGGAHKVRAGGPGLERGEAGVPAEFSIWTREAGAGGLSIAVEGPSKAEITFDDHKNGSCGVSYIAQEPGNYEVSIKFNDEHIPESPYLVPVIAPSDDARRLTVMSLQESGLKVNQPASFAIRLNGAKGKIDAKVHSPSGAVEECHVSELEPDKYAVRFIPHENGVHTIDVKFNGSHVVGSPFKVRVGEPGQAGNPALVSAYGTGLEGGTTGIQSEFFINTTRAGPGTLSVTIEGPSKVKMDCQETPEGYKVMYTPMAPGNYLISVKYGGPNHIVGSPFKAKVTGQRLVSPGSANETSSILVESVTRSSTETCYSAIPKASSDASKVTSKGAGLSKAFVGQKSSFLVDCSKAGSNMLLIGVHGPTTPCEEVSMKHVGNQQYNVTYVVKERGDYVLAVKWGEEHIPGSPFHVTVP
Consider B1, for which the binding entry in assay [1] and in assay [2] was “binds” each time.

B2: endogenous human PC2 (protein, UniProt Q13563 1-968)
chain: MVNSSRVQPQQPGDAKRPPAPRAPDPGRLMAGCAAVGASLAAPGGLCEQRGLEIEMQRIRQAAARDPPAGAAASPSPPLSSCSRQAWSRDNPGFEAEEEEEEVEGEEGGMVVEMDVEWRPGSRRSAASSAVSSVGARSRGLGGYHGAGHPSGRRRRREDQGPPCPSPVGGGDPLHRHLPLEGQPPRVAWAERLVRGLRGLWGTRLMEESSTNREKYLKSVLRELVTYLLFLIVLCILTYGMMSSNVYYYTRMMSQLFLDTPVSKTEKTNFKTLSSMEDFWKFTEGSLLDGLYWKMQPSNQTEADNRSFIFYENLLLGVPRIRQLRVRNGSCSIPQDLRDEIKECYDVYSVSSEDRAPFGPRNGTAWIYTSEKDLNGSSHWGIIATYSGAGYYLDLSRTREETAAQVASLKKNVWLDRGTRATFIDFSVYNANINLFCVVRLLVEFPATGGVIPSWQFQPLKLIRYVTTFDFFLAACEIIFCFFIFYYVVEEILEIRIHKLHYFRSFWNCLDVVIVVLSVVAIGINIYRTSNVEVLLQFLEDQNTFPNFEHLAYWQIQFNNIAAVTVFFVWIKLFKFINFNRTMSQLSTTMSRCAKDLFGFAIMFFIIFLAYAQLAYLVFGTQVDDFSTFQECIFTQFRIILGDINFAEIEEANRVLGPIYFTTFVFFMFFILLNMFLAIINDTYSEVKSDLAQQKAEMELSDLIRKGYHKALVKLKLKKNTVDDISESLRQGGGKLNFDELRQDLKGKGHTDAEIEAIFTKYDQDGDQELTEHEHQQMRDDLEKEREDLDLDHSSLPRPMSSRSFPRSLDDSEEDDDEDSGHSSRRRGSISSGVSYEEFQVLVRRVDRMEHSIGSIVSKIDAVIVKLEIMERAKLKRREVLGRLLDGVAEDERLGRDSEIHREQMERLVREELERWESDDAASQISHGLGTPVGLNGQPRPRSSRPSSSQSTEGMEGAGGNGSSNVHV
In the case of B2, in assay [3], the binding entry is on record as “binds”.

B3: GFP-PC2 (protein, UniProt Q13563 1-968)
chain: B2 chain
Consider B3, for which the binding entry in assay [4] is “binds”.

B4: C-terminus of human FLNC (FLNCC, aa 2144-2725) in pGADT7 (domain or fragment, UniProt Q14315 2144-2725)
chain: APSIATIGSTCDLNLKIPGNWFQMVSAQERLTRTFTRSSHTYTRTERTEISKTRGGETKREVRVEESTQVGGDPFPAVFGDFLGRERLGSFGSITRQQEGEASSQDMTAQVTSPSGKVEAAEIVEGEDSAYSVRFVPQEMGPHTVAVKYRGQHVPGSPFQFTVGPLGEGGAHKVRAGGTGLERGVAGVPAEFSIWTREAGAGGLSIAVEGPSKAEIAFEDRKDGSCGVSYVVQEPGDYEVSIKFNDEHIPDSPFVVPVASLSDDARRLTVTSLQETGLKVNQPASFAVQLNGARGVIDARVHTPSGAVEECYVSELDSDKHTIRFIPHENGVHSIDVKFNGAHIPGSPFKIRVGEQSQAGDPGLVSAYGPGLEGGTTGVSSEFIVNTLNAGSGALSVTIDGPSKVQLDCRECPEGHVVTYTPMAPGNYLIAIKYGGPQHIVGSPFKAKVTGPRLSGGHSLHETSTVLVETVTKSSSSRGSSYSSIPKFSSDASKVVTRGPGLSQAFVGQKNSFTVDCSKAGTNMMMVGVHGPKTPCEEVYVKHMGNRVYNVTYTVKEKGDYILIVKWGDESVPGSPFKVKVP
B4: the binding result in assay [1] and in assay [2] was “binds” each time.

B5: endogenous PC2 of IMCD cells (protein, UniProt O35245 1-966)
chain: MVNSRRVQPQPPGDAGRSPAPRASGPGRLVAGGAGLAVPGGLGEQRGLEIEMERIRQAAARDPPAGASASPSPPLSSCSRQAWSRDNPGFEAEEDDDDDEVEGEEGGMVVEMDVEWRPGSRRSASSSAVSSVGARGRGLGSYRGAAHLSGRRRRLEDQGAQCPSPAGGGDPLHRHLPLEGQPPRVAWAERLVRGLRGLWGTRLMEESNANREKYLKSVLRELVTYLFFLVVLCILTYGMMSSNVYYYTRTLSQLFIDTPVSKTEKTNFKTLSSMEDFWKFTEGSFLDGLYWKAQTSNHTQADNRSFIFYENLLLGVPRLRQLRVRNGSCSIPQDLRDEIKECYDVYSVSSEDRAPFGPRNGTAWMYTSEKELNGSSHWGIIASYSGAGYYLDLSRTREETAAQLAGLRRNFWLDRGTRAAFIDFSVYNANINLFCVVRLLAEFPATGGVVPSWQFQPVKLIRYVTAFDFFLAACEIIFCFFIIYYVVEEILEIRIHRLSYFRSFWNCLDVVIVVLSVVAMVINIYRMSNAEGLLQFLEDQNSFPNFEHVAYWQIQFNNISAVMVFLVWIKLFKFINFNRTMSQLSTTMSRCAKDLFGFTIMFSIIFLAYAQLAYLVFGTQVDDFSTFQECIFTQFRIILGDINFAEIEEANRVLGPLYFTTFVFFMFFILLNMFLAIINDSYSEVKSDLAQQKAEMELSDLIRKGCQKALVKLKLKRNTVDAISESLRQGGGKLNFDELRQDLKGKGHTDAEIEAIFTKYDQDGDQELTEREHQQMRDDLEKEREDLDLEHSSLPRPMSSRSFPRSLDDSEEEDDEDSGHSSRRRGSISSGVSYEEFQVLVRRVDRMEHSIGSIVSKIDAVIVKLEIMERAKLKRREVLGRLLDGVAEDARLGRDSEIHREQMERLVREELERWESDDAASQTGHGVSTQVGLGGQPHPRNPRPPSSQSAEGLEGGGGNGSANVHA
On to B5, for which the binding result in assay [5] was “binds”.
